# Reference: the M2OR odorant receptor database
# Chains of the proteins cited; added tags and fusions are not shown. A line that says so, or that is headed by a name, gives the form on record, which may keep a tag or linker.
# O51V1, as listed by the source: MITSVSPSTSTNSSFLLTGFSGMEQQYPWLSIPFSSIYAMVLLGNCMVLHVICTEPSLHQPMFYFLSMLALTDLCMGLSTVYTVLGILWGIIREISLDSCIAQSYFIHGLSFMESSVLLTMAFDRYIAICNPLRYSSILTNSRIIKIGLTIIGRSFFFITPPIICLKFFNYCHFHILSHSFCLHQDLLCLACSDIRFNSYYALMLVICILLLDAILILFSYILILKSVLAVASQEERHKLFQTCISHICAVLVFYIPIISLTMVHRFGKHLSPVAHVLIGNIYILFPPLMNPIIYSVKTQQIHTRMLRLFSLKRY
# O52E4, as listed by the source: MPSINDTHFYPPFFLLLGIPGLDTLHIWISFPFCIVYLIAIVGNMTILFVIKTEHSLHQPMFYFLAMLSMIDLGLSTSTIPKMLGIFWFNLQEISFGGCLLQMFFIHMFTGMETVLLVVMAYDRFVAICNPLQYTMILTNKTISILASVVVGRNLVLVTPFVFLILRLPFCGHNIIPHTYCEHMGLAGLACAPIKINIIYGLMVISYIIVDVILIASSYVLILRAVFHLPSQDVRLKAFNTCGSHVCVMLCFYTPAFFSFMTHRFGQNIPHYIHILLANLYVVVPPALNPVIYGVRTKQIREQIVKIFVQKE
# O52E2, as listed by the source: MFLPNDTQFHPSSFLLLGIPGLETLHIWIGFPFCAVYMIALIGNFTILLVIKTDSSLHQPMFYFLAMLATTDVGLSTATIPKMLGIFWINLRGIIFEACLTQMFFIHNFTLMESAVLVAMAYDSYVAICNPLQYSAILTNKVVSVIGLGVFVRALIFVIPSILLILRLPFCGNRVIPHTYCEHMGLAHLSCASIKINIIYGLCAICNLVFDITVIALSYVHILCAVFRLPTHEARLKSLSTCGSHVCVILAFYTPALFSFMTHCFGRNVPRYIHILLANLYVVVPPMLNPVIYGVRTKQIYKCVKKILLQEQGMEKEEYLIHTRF
# O52E5, as listed by the source: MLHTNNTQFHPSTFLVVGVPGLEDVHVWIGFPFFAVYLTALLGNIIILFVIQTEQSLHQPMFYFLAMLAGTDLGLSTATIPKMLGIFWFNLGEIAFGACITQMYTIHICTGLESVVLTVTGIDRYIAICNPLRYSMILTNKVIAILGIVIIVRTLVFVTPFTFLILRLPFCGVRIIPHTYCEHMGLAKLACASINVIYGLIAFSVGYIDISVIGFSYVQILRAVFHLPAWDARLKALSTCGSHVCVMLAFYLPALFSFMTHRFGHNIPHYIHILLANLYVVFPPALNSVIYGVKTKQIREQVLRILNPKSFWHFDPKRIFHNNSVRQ
# O52E1, as listed by the source: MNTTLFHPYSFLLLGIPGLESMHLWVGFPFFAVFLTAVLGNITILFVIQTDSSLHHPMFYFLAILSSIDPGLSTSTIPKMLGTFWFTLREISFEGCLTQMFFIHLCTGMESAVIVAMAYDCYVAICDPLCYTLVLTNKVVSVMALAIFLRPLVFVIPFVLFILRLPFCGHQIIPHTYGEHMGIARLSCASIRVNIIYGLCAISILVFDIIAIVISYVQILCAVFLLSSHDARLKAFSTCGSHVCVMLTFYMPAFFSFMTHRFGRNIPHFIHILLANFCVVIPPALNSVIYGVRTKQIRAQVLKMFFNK
# O52E8, as listed by the source: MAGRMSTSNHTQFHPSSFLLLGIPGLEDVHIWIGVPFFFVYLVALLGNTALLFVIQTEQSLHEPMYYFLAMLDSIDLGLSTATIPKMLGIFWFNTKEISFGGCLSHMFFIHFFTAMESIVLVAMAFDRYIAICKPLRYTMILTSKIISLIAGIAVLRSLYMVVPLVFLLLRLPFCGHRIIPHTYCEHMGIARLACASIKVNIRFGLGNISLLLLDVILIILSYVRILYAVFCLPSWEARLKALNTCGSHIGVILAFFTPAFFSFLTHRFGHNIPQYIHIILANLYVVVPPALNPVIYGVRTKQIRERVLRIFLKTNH
# O51L1, as listed by the source: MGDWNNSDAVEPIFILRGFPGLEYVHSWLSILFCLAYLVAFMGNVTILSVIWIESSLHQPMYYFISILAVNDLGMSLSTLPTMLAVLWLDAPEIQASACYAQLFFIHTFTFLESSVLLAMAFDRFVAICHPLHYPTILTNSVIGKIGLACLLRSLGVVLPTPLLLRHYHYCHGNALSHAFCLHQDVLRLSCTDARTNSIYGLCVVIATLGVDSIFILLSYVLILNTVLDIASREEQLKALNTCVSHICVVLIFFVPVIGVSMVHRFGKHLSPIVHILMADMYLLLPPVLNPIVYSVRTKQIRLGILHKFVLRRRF
# Numbering of substitutions follows the chain as printed. The list shows a part of the results, in another mix than the full data. The calls were merged from several studies; some rest on single wells. Some of the results follow.
# Legend:
# Details in all cases: stereoisomer not certain
# O51G1 = system: T1, O51G1
# T1 sequence (whole entry): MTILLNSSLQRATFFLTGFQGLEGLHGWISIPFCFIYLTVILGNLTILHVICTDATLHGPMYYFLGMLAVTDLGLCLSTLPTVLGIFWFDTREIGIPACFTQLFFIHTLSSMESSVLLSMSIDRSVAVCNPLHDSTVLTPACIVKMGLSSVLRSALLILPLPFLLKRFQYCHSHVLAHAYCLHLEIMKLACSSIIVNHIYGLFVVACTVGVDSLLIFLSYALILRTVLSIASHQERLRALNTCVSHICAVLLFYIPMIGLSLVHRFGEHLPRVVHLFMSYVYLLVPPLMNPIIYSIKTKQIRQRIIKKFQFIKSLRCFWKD
# Summary of the method: (§1)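 Transient luciferase assays in mammalian cell lines were common, though methods varied by source. The values come from published papers and their supplementary material, with extra details from the original authors when needed. Responsive refers to a measured signal the original authors judged statistically different from baseline, and non-responsive (inactive) to the remainder.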
# O51G2 = system: T2, O51G2
# T2 sequence (whole entry): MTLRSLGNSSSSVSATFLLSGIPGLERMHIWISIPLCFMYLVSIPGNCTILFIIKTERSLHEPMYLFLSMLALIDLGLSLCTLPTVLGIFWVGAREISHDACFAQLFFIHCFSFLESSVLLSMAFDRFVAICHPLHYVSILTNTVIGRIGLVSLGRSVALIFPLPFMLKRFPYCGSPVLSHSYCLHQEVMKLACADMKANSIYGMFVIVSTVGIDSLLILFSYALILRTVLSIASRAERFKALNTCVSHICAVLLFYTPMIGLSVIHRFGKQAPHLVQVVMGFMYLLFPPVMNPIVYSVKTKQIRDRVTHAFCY
# Summary of the method: as §1
# O51J1 = system: T3, O51J1
# T3 sequence (whole entry): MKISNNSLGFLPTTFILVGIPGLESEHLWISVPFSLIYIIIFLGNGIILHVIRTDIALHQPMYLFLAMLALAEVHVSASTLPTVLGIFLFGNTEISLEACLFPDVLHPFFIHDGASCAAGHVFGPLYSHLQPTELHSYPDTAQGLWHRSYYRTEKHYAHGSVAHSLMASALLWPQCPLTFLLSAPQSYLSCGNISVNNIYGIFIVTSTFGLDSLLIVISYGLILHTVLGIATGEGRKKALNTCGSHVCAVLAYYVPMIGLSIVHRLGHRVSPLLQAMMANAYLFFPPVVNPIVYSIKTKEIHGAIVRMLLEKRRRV
# Summary of the method: as §1
# O51L1 [1] = system: T4, O51L1
# T4 sequence (whole entry): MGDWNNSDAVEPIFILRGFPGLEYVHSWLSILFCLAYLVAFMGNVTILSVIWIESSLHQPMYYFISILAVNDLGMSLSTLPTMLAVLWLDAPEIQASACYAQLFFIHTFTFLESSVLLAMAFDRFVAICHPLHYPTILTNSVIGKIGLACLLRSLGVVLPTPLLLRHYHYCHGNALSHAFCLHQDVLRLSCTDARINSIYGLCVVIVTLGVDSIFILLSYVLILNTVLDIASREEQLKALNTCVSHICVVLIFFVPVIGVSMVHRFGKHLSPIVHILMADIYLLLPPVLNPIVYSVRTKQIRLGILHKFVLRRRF
# Summary of the method: as §1
# O51L1 [2] = system: T5, O51L1; remark: listed apart in the source
# T5 sequence (whole entry): T4 sequence (whole entry) with I196T, V207A, I281M
# Summary of the method: as §1
# O51M1 = system: T6, O51M1
# T6 sequence (whole entry): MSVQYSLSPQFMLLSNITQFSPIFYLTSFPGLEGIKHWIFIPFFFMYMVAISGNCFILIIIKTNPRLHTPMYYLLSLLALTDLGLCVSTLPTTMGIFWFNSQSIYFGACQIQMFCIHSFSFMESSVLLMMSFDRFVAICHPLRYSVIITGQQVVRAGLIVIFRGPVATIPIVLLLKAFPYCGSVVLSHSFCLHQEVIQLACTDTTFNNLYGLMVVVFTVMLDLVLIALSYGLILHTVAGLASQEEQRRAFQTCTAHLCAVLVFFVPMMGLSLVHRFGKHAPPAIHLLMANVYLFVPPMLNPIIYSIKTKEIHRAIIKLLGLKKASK
# Summary of the method: as §1
# O51Q1 = system: T7, O51Q1
# T7 sequence (whole entry): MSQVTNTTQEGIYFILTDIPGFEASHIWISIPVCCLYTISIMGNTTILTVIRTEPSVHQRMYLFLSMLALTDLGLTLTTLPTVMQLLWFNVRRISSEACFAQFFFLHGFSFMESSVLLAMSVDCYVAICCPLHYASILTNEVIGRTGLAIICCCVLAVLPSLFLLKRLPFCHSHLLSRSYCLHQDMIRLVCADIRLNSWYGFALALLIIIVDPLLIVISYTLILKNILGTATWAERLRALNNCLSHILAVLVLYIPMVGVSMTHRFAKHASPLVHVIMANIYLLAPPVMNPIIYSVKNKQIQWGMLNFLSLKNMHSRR
# Summary of the method: as §1
# O51T1 = system: T8, O51T1
# T8 sequence (whole entry): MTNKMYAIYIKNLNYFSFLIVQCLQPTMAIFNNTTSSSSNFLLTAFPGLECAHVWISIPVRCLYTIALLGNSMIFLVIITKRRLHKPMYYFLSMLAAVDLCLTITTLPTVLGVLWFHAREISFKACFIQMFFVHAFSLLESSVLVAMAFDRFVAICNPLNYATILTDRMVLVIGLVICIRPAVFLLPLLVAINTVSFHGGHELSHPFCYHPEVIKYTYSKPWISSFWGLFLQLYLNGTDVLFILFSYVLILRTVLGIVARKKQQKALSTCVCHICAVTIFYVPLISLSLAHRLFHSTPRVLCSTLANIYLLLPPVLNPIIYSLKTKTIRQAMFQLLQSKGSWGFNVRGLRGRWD
# Summary of the method: as §1
# O51V1 [3] = system: T9, O51V1
# T9 sequence (whole entry): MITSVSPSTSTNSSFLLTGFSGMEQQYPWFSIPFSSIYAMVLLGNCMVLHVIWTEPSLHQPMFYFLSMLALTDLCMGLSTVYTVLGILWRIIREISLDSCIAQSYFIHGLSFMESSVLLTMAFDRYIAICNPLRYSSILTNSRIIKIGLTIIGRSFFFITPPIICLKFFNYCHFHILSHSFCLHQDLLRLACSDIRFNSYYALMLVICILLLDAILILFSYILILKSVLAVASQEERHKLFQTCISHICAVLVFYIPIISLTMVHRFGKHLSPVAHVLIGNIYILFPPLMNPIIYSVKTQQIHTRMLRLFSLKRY
# Summary of the method: as §1
# O51V1 [4] = system: T10, O51V1; remark: listed apart in the source
# T10 sequence (whole entry): T9 sequence (whole entry) with F30L, W53C, R90G, R189C
# Summary of the method: as §1
# O52A1 = system: T11, O52A1
# T11 sequence (whole entry): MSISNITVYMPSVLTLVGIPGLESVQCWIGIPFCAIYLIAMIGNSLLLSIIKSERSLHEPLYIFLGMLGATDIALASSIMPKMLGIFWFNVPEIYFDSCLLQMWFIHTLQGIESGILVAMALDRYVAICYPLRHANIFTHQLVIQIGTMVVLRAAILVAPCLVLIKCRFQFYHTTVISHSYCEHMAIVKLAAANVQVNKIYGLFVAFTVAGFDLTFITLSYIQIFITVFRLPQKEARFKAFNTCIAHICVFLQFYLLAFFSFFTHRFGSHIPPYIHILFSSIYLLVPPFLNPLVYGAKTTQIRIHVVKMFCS
# Summary of the method: as §1
# O52B2 = system: T12, O52B2
# T12 sequence (whole entry): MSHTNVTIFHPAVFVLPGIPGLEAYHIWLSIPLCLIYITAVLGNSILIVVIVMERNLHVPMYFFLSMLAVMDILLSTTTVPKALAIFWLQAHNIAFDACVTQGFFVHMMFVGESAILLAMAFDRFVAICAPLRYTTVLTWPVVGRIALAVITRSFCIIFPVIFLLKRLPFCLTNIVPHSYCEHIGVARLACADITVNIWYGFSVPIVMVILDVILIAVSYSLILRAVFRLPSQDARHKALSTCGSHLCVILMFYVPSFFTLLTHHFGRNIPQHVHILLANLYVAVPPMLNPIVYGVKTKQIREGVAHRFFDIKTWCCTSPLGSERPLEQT
# Summary of the method: as §1
# O52B6 = system: T13, O52B6
# T13 sequence (whole entry): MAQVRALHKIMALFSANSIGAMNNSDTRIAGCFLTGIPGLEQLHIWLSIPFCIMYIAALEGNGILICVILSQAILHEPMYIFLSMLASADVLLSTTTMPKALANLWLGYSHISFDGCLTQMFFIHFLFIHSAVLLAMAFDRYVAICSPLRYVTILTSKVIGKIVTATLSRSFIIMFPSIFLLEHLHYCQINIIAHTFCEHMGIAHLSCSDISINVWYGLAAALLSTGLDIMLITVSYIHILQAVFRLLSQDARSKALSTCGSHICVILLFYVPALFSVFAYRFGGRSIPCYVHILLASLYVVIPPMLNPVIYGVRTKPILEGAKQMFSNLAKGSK
# Summary of the method: as §1
# O52E1 = system: O52E1
# Summary of the method: as §1
# O52E2 = system: O52E2
# Summary of the method: as §1
# O52E4 = system: O52E4
# Summary of the method: as §1
# O52E5 = system: O52E5
# Summary of the method: as §1
# O52E8 = system: O52E8
# Summary of the method: as §1
# O52I2 = system: T14, O52I2
# T14 sequence (whole entry): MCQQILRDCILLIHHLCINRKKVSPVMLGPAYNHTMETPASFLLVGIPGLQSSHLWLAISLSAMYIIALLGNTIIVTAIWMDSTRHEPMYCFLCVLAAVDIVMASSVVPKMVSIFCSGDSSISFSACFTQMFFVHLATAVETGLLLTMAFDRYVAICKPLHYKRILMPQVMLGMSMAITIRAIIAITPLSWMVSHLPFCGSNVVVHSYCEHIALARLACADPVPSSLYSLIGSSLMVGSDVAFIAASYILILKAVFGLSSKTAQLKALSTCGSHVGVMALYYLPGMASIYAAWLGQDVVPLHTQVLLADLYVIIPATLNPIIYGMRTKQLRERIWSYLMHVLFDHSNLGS
# Summary of the method: as §1
# 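Also: active if original authors judged signal statistically different from baseline.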
SMILES,odorant receptor agonist call (O51G1),odorant receptor agonist call (O51G2),odorant receptor agonist call (O51J1),odorant receptor agonist call (O51L1 [1]),odorant receptor agonist call (O51L1 [2]),odorant receptor agonist call (O51M1),odorant receptor agonist call (O51Q1),odorant receptor agonist call (O51T1),odorant receptor agonist call (O51V1 [3]),odorant receptor agonist call (O51V1 [4]),odorant receptor agonist call (O52A1),odorant receptor agonist call (O52B2),odorant receptor agonist call (O52B6),odorant receptor agonist call (O52E1),odorant receptor agonist call (O52E2),odorant receptor agonist call (O52E4),odorant receptor agonist call (O52E5),odorant receptor agonist call (O52E8),odorant receptor agonist call (O52I2)
c1ccc(Oc2ccccc2)cc1,inactive,inactive,inactive,inactive,inactive,inactive,inactive,inactive,inactive,inactive,inactive,inactive,inactive,inactive,inactive,inactive,inactive,inactive,inactive
C=CCc1ccc(OC(C)=O)c(OC)c1,inactive,inactive,active,inactive,inactive,active,inactive,inactive,active,active,inactive,inactive,inactive,inactive,active,inactive,inactive,inactive,inactive
CCCCCCCC=CC=O,inactive,inactive,inactive,inactive,inactive,inactive,inactive,inactive,inactive,inactive,inactive,inactive,inactive,inactive,inactive,inactive,inactive,inactive,inactive
CCCCCCCC=O,inactive,inactive,inactive,inactive,inactive,inactive,inactive,inactive,inactive,inactive,inactive,inactive,inactive,inactive,inactive,inactive,inactive,inactive,inactive
O=CCc1ccccc1,inactive,inactive,active,active,active,active,inactive,inactive,active,active,inactive,inactive,inactive,inactive,inactive,inactive,active,inactive,inactive
COC(=O)c1ccccc1,inactive,inactive,–,inactive,inactive,–,inactive,inactive,–,–,inactive,inactive,inactive,inactive,inactive,–,–,inactive,inactive
O=C1CCCCCCCCCCCCCCO1,inactive,inactive,inactive,inactive,inactive,inactive,inactive,inactive,inactive,inactive,inactive,inactive,inactive,inactive,inactive,inactive,inactive,inactive,inactive
CC12C=CCC1C1CCC3=CC(=O)CCC3(C)C1CC2 (stereo not drawn),inactive,inactive,inactive,active,inactive,inactive,inactive,inactive,inactive,inactive,inactive,inactive,inactive,inactive,inactive,active,active,inactive,inactive
CC(=O)c1ccccc1,inactive,inactive,–,inactive,inactive,–,inactive,active,–,–,inactive,inactive,active,inactive,inactive,–,–,inactive,inactive
CC(C)C=O,inactive,inactive,inactive,inactive,inactive,inactive,inactive,inactive,inactive,inactive,inactive,inactive,inactive,inactive,inactive,inactive,inactive,inactive,inactive
O=C1CCCCC1,inactive,inactive,–,inactive,inactive,–,inactive,inactive,–,–,inactive,inactive,inactive,inactive,inactive,–,–,inactive,inactive
O=C1CCCCCCCCCCCC(=O)OCCO1,inactive,inactive,inactive,inactive,inactive,active,inactive,inactive,active,inactive,inactive,inactive,inactive,inactive,inactive,inactive,inactive,inactive,inactive
CCCCCC(C)=O,inactive,inactive,–,inactive,inactive,–,inactive,inactive,–,–,inactive,inactive,inactive,inactive,inactive,–,–,inactive,active

# 2 compounds from above, reduced to odorant receptor agonist call (O52B6) and odorant receptor agonist call (O51T1).
SMILES | odorant receptor agonist call (O52B6) | odorant receptor agonist call (O51T1)
O=C1CCCCCCCCCCCC(=O)OCCO1 | inactive | inactive
CCCCCC(C)=O | inactive | inactive
